# Measurements from the supplement of paper PMC8728848.
# The list shows a part of the results.
# B1: Ovorubin (Pomacea canaliculata), J7I2T6 (protein)
# chain: MFVATSLLLAIATLVVRASPHNYLIMDIEPPKSVSERDILNLLSPLQVKHSFRVTGSTRLLIVIRLDAQSYEKLDEITVPGKVEVIPAVNMADTMERCGVSWPRVELTDDNVTLFESESTLTDVTKEQLKAMLIGYGEHMSGLLQAHRFEYYQAAGATPHRHFVFVNSVPDEIEVFGREGVDIWGGPGEFVVKPQYVTRI
# How the values were obtained:
# Assay in all cases: glycan array binding signal (z-score within array); higher = stronger binding
# Details in all cases: glycan notation: IUPAC condensed, linker removed
# Gal6S(b1-4)Glc = biological target: Gal6S(b1-4)Glc
# How it was run: (§1)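 Columns mapping to the same glycan were averaged after glycan names were converted to IUPAC-condensed notation. The data come from 3228 arrays in the Consortium for Functional Glycomics database, limited to those with an available protein sequence. Binding is reported as a within-array Z-score averaged across arrays of one protein sequence and across linkers.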
# Gal6S(b1-4)Glc6S = biological target: Gal6S(b1-4)Glc6S
# How it was run: as §1
# Gal6S(b1-4)GlcNAc = biological target: Gal6S(b1-4)GlcNAc
# How it was run: as §1
# Gal6S(b1-4)GlcNAc6S = biological target: Gal6S(b1-4)GlcNAc6S
# How it was run: as §1
# GalNAc(a1-3)Gal = biological target: GalNAc(a1-3)Gal
# How it was run: as §1
# GalNAc(a1-3)GalNAc = biological target: GalNAc(a1-3)GalNAc
# How it was run: as §1
# [1] = biological target: GalNAc(a1-3)GalNAc(b1-3)Gal(a1-4)Gal(b1-4)Glc
# How it was run: as §1
# [2] = biological target: GalNAc(a1-3)GalNAc(b1-3)Gal(a1-4)Gal(b1-4)GlcNAc
# How it was run: as §1
# GalNAc(b1-3)Gal = biological target: GalNAc(b1-3)Gal
# How it was run: as §1
# [3] = biological target: GalNAc(b1-3)Gal(a1-4)Gal(b1-4)GlcNAc
# How it was run: as §1
# [4] = biological target: GalNAc(b1-3)Gal(a1-4)Gal(b1-4)GlcNAc(b1-3)Gal(b1-4)Glc
# How it was run: as §1
# [5] = biological target: GalNAc(b1-3)Gal(a1-6)Gal(b1-4)Glc
# How it was run: as §1
# GalNAc(b1-3)GalNAc = biological target: GalNAc(b1-3)GalNAc
# How it was run: as §1
# GalNAc(b1-3)GlcNAc = biological target: GalNAc(b1-3)GlcNAc
# How it was run: as §1
# GalNAc(b1-4)Gal(b1-4)Glc = biological target: GalNAc(b1-4)Gal(b1-4)Glc
# How it was run: as §1
# GalNAc(b1-4)GlcNAc = biological target: GalNAc(b1-4)GlcNAc
# How it was run: as §1
# [6] = biological target: GalNAc(b1-4)GlcNAc(b1-2)Man
# How it was run: as §1
# [7] = biological target: GalNAc(b1-4)GlcNAc(b1-2)Man(a1-3)[GalNAc(b1-4)GlcNAc(b1-2)Man(a1-6)]Man(b1-4)GlcNAc(b1-4)GlcNAc
# How it was run: as §1
# [8] = biological target: GalNAc(b1-4)GlcNAc(b1-3)GalNAc(b1-4)GlcNAc
# How it was run: as §1
# GalNAc(b1-4)GlcNAc6S = biological target: GalNAc(b1-4)GlcNAc6S
# How it was run: as §1
# GalNAc(b1-6)GalNAc = biological target: GalNAc(b1-6)GalNAc
# How it was run: as §1
# GalNAc3S(b1-4)GlcNAc = biological target: GalNAc3S(b1-4)GlcNAc
# How it was run: as §1
# GalNAc3S(b1-4)GlcNAc3S = biological target: GalNAc3S(b1-4)GlcNAc3S
# How it was run: as §1
# [9] = biological target: GalNAc3S(b1-4)[Fuc(a1-3)]GlcNAc
# How it was run: as §1
# GalNAc4S6S(b1-4)GlcNAc = biological target: GalNAc4S6S(b1-4)GlcNAc
# How it was run: as §1
# GalNAc6S(b1-4)GlcNAc = biological target: GalNAc6S(b1-4)GlcNAc
# How it was run: as §1
# Glc(a1-4)Glc = biological target: Glc(a1-4)Glc
# How it was run: as §1
# [10] = biological target: Glc(a1-4)Glc(a1-4)Glc(a1-4)Glc
# How it was run: as §1
# Glc(a1-6)Glc(a1-6)Glc = biological target: Glc(a1-6)Glc(a1-6)Glc
# How it was run: as §1
# [11] = biological target: Glc(a1-6)Glc(a1-6)Glc(a1-6)Glc
# How it was run: as §1
# Glc(b1-4)Glc = biological target: Glc(b1-4)Glc
# How it was run: as §1
# Glc(b1-6)Glc = biological target: Glc(b1-6)Glc
# How it was run: as §1
# GlcA(b1-3)Gal = biological target: GlcA(b1-3)Gal
# How it was run: as §1
# GlcA(b1-3)GlcNAc = biological target: GlcA(b1-3)GlcNAc
# How it was run: as §1
# GlcA(b1-6)Gal = biological target: GlcA(b1-6)Gal
# How it was run: as §1
# [12] = biological target: GlcA3S(b1-3)Gal(b1-4)GlcNAc(b1-2)Man
# How it was run: as §1
# [13] = biological target: GlcA3S(b1-3)Gal(b1-4)GlcNAc(b1-3)Gal(b1-4)Glc
# How it was run: as §1
# [14] = biological target: GlcNAc(a1-3)Gal(b1-4)GlcNAc
# How it was run: as §1
# [15] = biological target: GlcNAc(a1-4)Gal(b1-3)GlcNAc
# How it was run: as §1
# [16] = biological target: GlcNAc(a1-4)Gal(b1-4)GalNAc
# How it was run: as §1
# [17] = biological target: GlcNAc(a1-4)Gal(b1-4)GlcNAc
# How it was run: as §1
# [18] = biological target: GlcNAc(a1-4)Gal(b1-4)GlcNAc(b1-3)Gal(b1-4)Glc
# How it was run: as §1
# [19] = biological target: GlcNAc(a1-4)Gal(b1-4)GlcNAc(b1-3)Gal(b1-4)GlcNAc
# How it was run: as §1
# [20] = biological target: GlcNAc(a1-4)Gal(b1-4)GlcNAc(b1-3)Gal(b1-4)GlcNAc(b1-3)Gal(b1-4)GlcNAc
# How it was run: as §1
# [21] = biological target: GlcNAc(a1-4)Gal(b1-4)GlcNAc(b1-3)Gal(b1-4)[Fuc(a1-3)]GlcNAc(b1-3)Gal(b1-4)[Fuc(a1-3)]GlcNAc
# How it was run: as §1
binder,measurement,setting,value
B1,glycan array binding signal (z-score),Gal6S(b1-4)Glc,0.015
same,glycan array binding signal (z-score),Gal6S(b1-4)Glc6S,3.93
same,glycan array binding signal (z-score),Gal6S(b1-4)GlcNAc,-0.758
same,glycan array binding signal (z-score),Gal6S(b1-4)GlcNAc6S,-0.558
same,glycan array binding signal (z-score),GalNAc(a1-3)Gal,-0.629
same,glycan array binding signal (z-score),GalNAc(a1-3)GalNAc,-0.067
same,glycan array binding signal (z-score),[1],-0.475
same,glycan array binding signal (z-score),[2],-0.17
same,glycan array binding signal (z-score),GalNAc(b1-3)Gal,-0.276
same,glycan array binding signal (z-score),[3],0.217
same,glycan array binding signal (z-score),[4],-0.665
same,glycan array binding signal (z-score),[5],-0.472
same,glycan array binding signal (z-score),GalNAc(b1-3)GalNAc,-0.073
same,glycan array binding signal (z-score),GalNAc(b1-3)GlcNAc,0.328
same,glycan array binding signal (z-score),GalNAc(b1-4)Gal(b1-4)Glc,-0.307
same,glycan array binding signal (z-score),GalNAc(b1-4)GlcNAc,0.635
same,glycan array binding signal (z-score),[6],-0.618
same,glycan array binding signal (z-score),[7],-0.493
same,glycan array binding signal (z-score),[8],0.257
same,glycan array binding signal (z-score),GalNAc(b1-4)GlcNAc6S,-0.066
same,glycan array binding signal (z-score),GalNAc(b1-6)GalNAc,-0.284
same,glycan array binding signal (z-score),GalNAc3S(b1-4)GlcNAc,-0.338
same,glycan array binding signal (z-score),GalNAc3S(b1-4)GlcNAc3S,-0.163
same,glycan array binding signal (z-score),[9],-1.29
same,glycan array binding signal (z-score),GalNAc4S6S(b1-4)GlcNAc,-0.483
same,glycan array binding signal (z-score),GalNAc6S(b1-4)GlcNAc,-0.335
same,glycan array binding signal (z-score),Glc(a1-4)Glc,-0.045
same,glycan array binding signal (z-score),[10],0.075
same,glycan array binding signal (z-score),Glc(a1-6)Glc(a1-6)Glc,-0.57
same,glycan array binding signal (z-score),[11],-0.19
same,glycan array binding signal (z-score),Glc(b1-4)Glc,-0.473
same,glycan array binding signal (z-score),Glc(b1-6)Glc,-0.801
same,glycan array binding signal (z-score),GlcA(b1-3)Gal,-0.128
same,glycan array binding signal (z-score),GlcA(b1-3)GlcNAc,-0.443
same,glycan array binding signal (z-score),GlcA(b1-6)Gal,-0.181
same,glycan array binding signal (z-score),[12],0.354
same,glycan array binding signal (z-score),[13],0.189
same,glycan array binding signal (z-score),[14],-0.682
same,glycan array binding signal (z-score),[15],-0.515
same,glycan array binding signal (z-score),[16],0.125
same,glycan array binding signal (z-score),[17],-0.551
same,glycan array binding signal (z-score),[18],-0.52
same,glycan array binding signal (z-score),[19],-0.55
same,glycan array binding signal (z-score),[20],-0.555
same,glycan array binding signal (z-score),[21],0.026

# Reformatted as tab-separated lines: part of the list above
binder	measurement	setting	value
B1	glycan array binding signal (z-score)	GalNAc(a1-3)GalNAc	-0.067
same	glycan array binding signal (z-score)	[6]	-0.618
same	glycan array binding signal (z-score)	[13]	0.189
